Reference: patent US9664696B1, “Compounds for determining the presence of hydrogen sulfide and methods of use” (University of Oregon, priority 2013, dated 2017)

Assay: Chemiluminescent H2S detection limit (HRP/H2O2/p-iodophenol)
Settings: 1 hour incubation, p-iodophenol enhancer
Description: In a septum-sealed cuvette, a solution of the compound (50 μM) and the desired reactive species was incubated in PIPES buffer (50 mM PIPES, 100 mM KCl, pH 7.4) for 60 minutes at 37.0° C. After incubation, 40 μL of 6 M NaOH was added to increase the pH to an optimal level for luminol chemiluminescence. After pH adjustment, 10 μL of 10 U/mL Horseradish Peroxidase (HRP) with 0.2 μM p-iodophenol was added. A background reading was acquired for 60 seconds, after which 50 μL of H2O2 (35%) was added. The sample luminosity at 425 nm was integrated for 300 s after H2O2 addition. The data reported are the average of at least three independent experiments. […]
Following the H2S-derived chemiluminescent response of both chemiluminescent compound precursor 200 and chemiluminescent compound precursor 202, the detection limit of each chemiluminescent compound precursor for H2S was determined. After incubating each chemiluminescent compound precursor for 1 hour for different H2S concentrations, the chemiluminescent response was measured after treatment with H2O2/HRP using p-iodophenol as an enhancer. […] Based on the concentration-dependent H2S response and the instrumental background measurements, the H2S detection limit (3σ) of chemiluminescent compound precursor 200 and chemiluminescent compound precursor 202 was determined to be 0.7±0.3 μM and 4.6±2.0 μM, respectively. […]

Row | Structure (SMILES) | H2S detection limit (3σ) [µM]
1 | [N-]=[N+]=Nc1cccc2c(=O)[nH][nH]c(=O)c12 [compound 200, 3-Azidophthalhydrazide] | 0.7 ± 0.3
2 | [N-]=[N+]=Nc1ccc2c(=O)[nH][nH]c(=O)c2c1 [compound 202, 4-Azidophthalhydrazide] | 4.6 ± 2.0
